This is an account of results in article PMC6925144, “A prospective compound screening contest identified broader inhibitors for Sirtuin 1” (Scientific Reports, 2019).

Amino acid sequences for entries named in this document (tags omitted). Residues count along the entry.
UniProt Q96EB6, 2-747 limits assumed: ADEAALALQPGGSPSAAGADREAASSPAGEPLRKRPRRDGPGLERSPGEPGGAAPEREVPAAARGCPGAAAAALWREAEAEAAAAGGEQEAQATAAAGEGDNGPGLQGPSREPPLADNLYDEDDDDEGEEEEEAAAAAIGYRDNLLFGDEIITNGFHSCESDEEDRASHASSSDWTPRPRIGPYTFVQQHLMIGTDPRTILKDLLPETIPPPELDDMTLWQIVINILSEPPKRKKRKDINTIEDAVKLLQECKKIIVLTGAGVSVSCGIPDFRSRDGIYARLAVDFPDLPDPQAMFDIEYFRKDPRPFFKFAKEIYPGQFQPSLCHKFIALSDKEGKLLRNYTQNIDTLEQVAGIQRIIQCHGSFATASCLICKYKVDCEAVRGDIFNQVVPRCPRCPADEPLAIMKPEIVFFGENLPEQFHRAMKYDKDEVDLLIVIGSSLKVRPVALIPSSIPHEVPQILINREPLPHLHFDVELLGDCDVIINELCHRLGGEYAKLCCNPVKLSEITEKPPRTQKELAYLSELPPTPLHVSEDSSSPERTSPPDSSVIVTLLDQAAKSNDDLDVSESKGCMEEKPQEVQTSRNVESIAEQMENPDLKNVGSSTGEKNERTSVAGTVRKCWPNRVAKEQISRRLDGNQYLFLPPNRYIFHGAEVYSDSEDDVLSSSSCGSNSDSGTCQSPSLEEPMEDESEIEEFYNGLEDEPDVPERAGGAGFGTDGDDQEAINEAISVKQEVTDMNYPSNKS

In all, about 3,200 compounds were measured (“TSA(without NAD+) / Primary screening (TSA) / delta Tm (K)”: median about -0.07, highest 2% from about 0.37 on). This is one part of the list.

The assay addresses NAD-dependent deacetylase Sirtuin 1 (human, UniProt Q96EB6). Put plainly: primary screen, delta tm. Also noted: single well (n = 1). Conditions: 10 µM. The essentials: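 Thermal shift of Sirtuin 1 measured without NAD+, compound at 10 µM (n = 1); value is ΔTm, with hits defined as ΔTm > 0.45 K or < −1.5 K. Hits retested at 5, 10, 20 µM (n = 4) and counterscreened on bovine carbonic anhydrase and ABL1 SH2 domain.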
Turning to `CC12CCC(C/C1=N/N=C1/CC3CCC1(C)C3(C)C)C2(C)C`, the “TSA(without NAD+) / Primary screening (TSA) / delta Tm (K)” value is recorded as -0.13 K.
Turning to `O=C(Nc1ccccc1Oc1ccccc1)c1cccc([N+](=O)[O-])c1`, the “TSA(without NAD+) / Primary screening (TSA) / delta Tm (K)” value is on record as -0.13 K.
Under `Cc1csc2c(NC3(CO)CCCC3)ncnc12` stands -0.32 K; under `CC(NC(=O)c1ccccc1NC(=O)COC(=O)C12CC3CC(CC(O)(C3)C1)C2)c1ccccc1` (stereo not shown), 0.12 K; under `CC(OC(=O)CNC(=O)C12CC3CC(CC(C3)C1)C2)C(=O)Nc1ccccc1-c1ccccc1` (stereo not shown), -0.08 K.
For `Cc1nc(S)sc1CC(=O)NCC1CCCS1(=O)=O` (stereo not shown), the “TSA(without NAD+) / Primary screening (TSA) / delta Tm (K)” value was 0.02 K.
In the case of `Cc1nc2ccccc2c(=O)n1CC(=O)O`, the “TSA(without NAD+) / Primary screening (TSA) / delta Tm (K)” value is 0.07 K.
Regarding `COc1ccc(C2C(C(=O)/C=C/c3ccco3)=C(O)C(=O)N2CCCN2CCOCC2)cc1` (stereo not shown), the “TSA(without NAD+) / Primary screening (TSA) / delta Tm (K)” value is -0.01 K.
With `Cc1cccc2[nH]c(CCC(=O)NCC(=O)Nc3cccnc3)nc12`, the “TSA(without NAD+) / Primary screening (TSA) / delta Tm (K)” value is on record as 0.02 K.
`CC(OC(=O)c1ccc(-c2ccc(O)cc2)cc1)C(=O)NCc1ccccc1` (stereo not shown): the “TSA(without NAD+) / Primary screening (TSA) / delta Tm (K)” value is on record as -0.21 K.
With `Cc1noc(C(C)N2CCN(Cc3cccc(C(N)=O)c3)CC2)n1` (stereo not shown), the “TSA(without NAD+) / Primary screening (TSA) / delta Tm (K)” value is reported as -0.43 K.
For the molecule `CCOC(=O)c1sc2nc(C)nc(N3CCN(c4ccc(O)cc4)CC3)c2c1C`, the “TSA(without NAD+) / Primary screening (TSA) / delta Tm (K)” value was -0.13 K.
For `COc1ccc(C(=O)C2=C(O)C(=O)N(CCCN3CCOCC3)C2c2ccco2)cc1OC` (stereo not shown), the “TSA(without NAD+) / Primary screening (TSA) / delta Tm (K)” value is on record as -0.04 K.
With `Cc1nccn1-c1ncnc2c1cnn2-c1ccccc1`, the “TSA(without NAD+) / Primary screening (TSA) / delta Tm (K)” value is on record as -0.24 K.
Consider `CCOc1ccc(C2C(C(=O)c3ccc(C)o3)=C(O)C(=O)N2CCCN2CCOCC2)cc1OC` (stereo not shown), for which the “TSA(without NAD+) / Primary screening (TSA) / delta Tm (K)” value was -0.11 K.
For the molecule `C[C@@H](N)CO`, the “TSA(without NAD+) / Primary screening (TSA) / delta Tm (K)” value amounted to 0.05 K.
Consider `CCc1noc(CNc2cc(C(N)=O)ccc2OC)n1`, for which the “TSA(without NAD+) / Primary screening (TSA) / delta Tm (K)” value is -0.03 K.
Regarding `O=C(CCn1[nH]c(=O)ccc1=O)Nc1ccc(Cl)cc1F`, the “TSA(without NAD+) / Primary screening (TSA) / delta Tm (K)” value was -0.01 K.
With `NC(=O)c1cccc(CNCc2ccsc2)c1`, the “TSA(without NAD+) / Primary screening (TSA) / delta Tm (K)” value is -0.08 K.
Under `COc1ccc(CNCc2ccc(C(N)=O)cc2)cc1` stands 0.07 K.
On to `NC(=O)c1ccc(COC(=O)c2cc3c(ccc4ccccc43)[nH]2)cc1`, for which the “TSA(without NAD+) / Primary screening (TSA) / delta Tm (K)” value is 0.05 K.
Take `O=C(c1cccc(Cl)c1)N1CCc2ccccc21`: the “TSA(without NAD+) / Primary screening (TSA) / delta Tm (K)” value is recorded as -0.01 K.
On to `COc1ccccc1NS(=O)(=O)c1ccc(N2CCOCC2)c(NC(=S)NC(=O)C23CC4CC(CC(C4)C2)C3)c1`, for which the “TSA(without NAD+) / Primary screening (TSA) / delta Tm (K)” value was 0.18 K.
Under `CCCC(C)C(=O)O` (stereo not shown) stands -0.22 K; under `Cc1ccc(NC(=O)C2=COCCO2)cc1S(=O)(=O)N1CCOCC1`, 0.09 K; under `NNC(=O)Cc1ccc(Cl)cc1`, -0.08 K.
On to `CCOc1ccc(CCNC(=O)COC(=O)CNC(=O)C23CC4CC(CC(C4)C2)C3)cc1OCC`, for which the “TSA(without NAD+) / Primary screening (TSA) / delta Tm (K)” value is 0.03 K.
As to `CC1CCc2[nH]c3ccc(C(=O)OCC(=O)NC(=O)NC45CC6CC(CC(C6)C4)C5)cc3c2C1` (stereo not shown), the “TSA(without NAD+) / Primary screening (TSA) / delta Tm (K)” value is 0.27 K.
Under `COc1ccc(C(=O)C2=C(O)C(=O)N(CCCN3CCOCC3)C2c2ccccc2)cc1OC` (stereo not shown) stands -0.21 K; under `COc1ccc(CCC(=O)Nc2cc(S(=O)(=O)N3CCCCC3)ccc2OC(C)C)cc1OC`, 0.02 K.
For the molecule `CSc1cccc(NC(=O)c2cccc(S(=O)(=O)N(C)c3ccc(C)cc3)c2)c1`, the “TSA(without NAD+) / Primary screening (TSA) / delta Tm (K)” value was determined as 0.35 K.
Consider `CCOC(=O)/C=C/C(=O)OCC(=O)N1N=C2/C(=C\c3ccc(OC)cc3)CCCC2C1c1ccc(OC)cc1` (stereo not shown), for which the “TSA(without NAD+) / Primary screening (TSA) / delta Tm (K)” value is listed as 0.08 K.
Turning to `NC(=O)COC(=O)c1ccc(SCc2cn3ccccc3n2)cc1`, the “TSA(without NAD+) / Primary screening (TSA) / delta Tm (K)” value came to 0.07 K.
In the case of `N#Cc1ccc2[nH]c3c(c2c1)CCCC3`, the “TSA(without NAD+) / Primary screening (TSA) / delta Tm (K)” value is reported as -0.08 K.
Turning to `NC(=O)C1CCN(c2ncnc3c2c(-c2ccccc2)cn3-c2cccc(C(F)(F)F)c2)CC1`, the “TSA(without NAD+) / Primary screening (TSA) / delta Tm (K)” value is listed as -0.07 K.
Take `Cc1cc(C(=O)COC(=O)C23CC4CC(CC(O)(C4)C2)C3)c(C)n1-c1cccc(S(=O)(=O)N2CCOCC2)c1`: the “TSA(without NAD+) / Primary screening (TSA) / delta Tm (K)” value is given as -0.03 K.
On to `CNC(=O)COc1cc(F)ccc1F`, for which the “TSA(without NAD+) / Primary screening (TSA) / delta Tm (K)” value is -0.03 K.
The same measure for `CNC(=O)CCNc1ccc2nnc(C(F)(F)F)n2n1`: 0.03 K; for `CC1CCC/C(=N/NC(=O)c2ccc(Cn3nnc(-c4ccccc4)n3)cc2)C1` (stereo not shown): -0.08 K; for `Cc1ccc(N(C)S(=O)(=O)c2cccc(C(=O)OC3CCOC3=O)c2)cc1` (stereo not shown): -0.07 K.
As for `Cc1nc2c3ccccc3nc(SCc3nc(N)nc(Nc4ccc(F)cc4)n3)n2n1`, the “TSA(without NAD+) / Primary screening (TSA) / delta Tm (K)” value was found to be 0.18 K.
With `CC1(C)NC(=O)N(CC(=O)Nc2sc3c(c2-c2nc4ccccc4[nH]2)CCCC3)C1=O`, the “TSA(without NAD+) / Primary screening (TSA) / delta Tm (K)” value is 0.26 K.
Under `Cc1ccc(N(C)S(=O)(=O)c2cccc(C(=O)Nc3cccc(C#N)c3)c2)cc1` stands 0.43 K; under `CC1CC1CN` (stereo not shown), -0.13 K; under `O=C(COc1ncnc2sc3c(c12)CCCC3)N1CCc2ccccc21`, 0.07 K.
As for `Cc1cc(C(=O)COC(=O)C23CC4CC(CC(Cl)(C4)C2)C3)c(C)n1Cc1ccc2c(c1)OCO2`, the “TSA(without NAD+) / Primary screening (TSA) / delta Tm (K)” value is -0.04 K.
Regarding `COC(OC)C(C)N` (stereo not shown), the “TSA(without NAD+) / Primary screening (TSA) / delta Tm (K)” value is reported as -0.03 K.
For the molecule `COc1cc(CN(C)C(=O)c2ccc(CNC(N)=O)cc2)ccc1OCc1ccccc1`, the “TSA(without NAD+) / Primary screening (TSA) / delta Tm (K)” value is recorded as -0.14 K.
Turning to `Cc1c(C)n(-c2ccc(Cl)cc2)c2ncnc(N)c12`, the “TSA(without NAD+) / Primary screening (TSA) / delta Tm (K)” value is listed as -0.24 K.
`CCC(C)(C)C(=O)N1CCc2cnccc21`: the “TSA(without NAD+) / Primary screening (TSA) / delta Tm (K)” value is -0.18 K.
Regarding `O=c1onc(-c2cnccn2)n1Cc1nc2cc([N+](=O)[O-])ccc2o1`, the “TSA(without NAD+) / Primary screening (TSA) / delta Tm (K)” value is listed as -0.12 K.
Regarding `O=C(C1CCCc2ccccc21)N1CCCC(c2nc3ccccc3o2)C1` (stereo not shown), the “TSA(without NAD+) / Primary screening (TSA) / delta Tm (K)” value was -0.02 K.
`C=CCn1c(SCC(=O)Nc2ccc(C(N)=O)cc2)nnc1-c1ccncc1`: the “TSA(without NAD+) / Primary screening (TSA) / delta Tm (K)” value came to 0.06 K.
Regarding `Cc1ccnc(NC(=O)C2CCN(c3ncnc4scc(-c5ccc(F)cc5)c34)CC2)c1`, the “TSA(without NAD+) / Primary screening (TSA) / delta Tm (K)” value is -0.18 K.
With `O=C(O)CCc1ccc(S(=O)(=O)Nc2ccc3[nH]c(-c4ccc(F)cc4)nc3c2)cc1`, the “TSA(without NAD+) / Primary screening (TSA) / delta Tm (K)” value is -0.03 K.
Under `Cc1ccc(-c2csc3ncn(CC(=O)NCC(=O)Nc4ccc(F)c(F)c4F)c(=O)c23)s1` stands 0.07 K.
Under `Cc1c(C=C2C(=O)NC(=S)NC2=O)c2ccccn2c1C(=O)c1cccc([N+](=O)[O-])c1` stands 0.06 K; under `COc1cccc(/C=N/c2ccc(C)cc2)c1OC`, -0.18 K.
